Laboratory results: PubChem BioAssay AID504791 (Drosophila RNAi Screening Center, 2011)
The screen tested about 23,000 reagents; this is a random part of those with a known target gene and a result. Of all reagents, 199 (0.86%) are marked active. 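Plate-scaled ratios behind the calls are not deposited; printed light signals are raw; many rows marked increased or decreased are still called inactive.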 A plus sign joins genes that one reagent is predicted to hit. No sequences are given here. Not given: the direction of the score.

Assay: 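Genes of the fly required for silencing by miRNA, siRNA or endo-siRNA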 (primary screen)
System: Drosophila S2-derived reporter cells
Reagent: long dsRNA against Drosophila genes, about 150-250 ng dsRNA per well (siRNA assay); about 80-120 ng (miRNA assay)
Timing: about 5 days (siRNA assay); about 4 days (miRNA assay)
Challenge: copper sulfate induction of reporters: 25 µM (siRNA assay); 200 mM stated (miRNA assay), 1-2 days before reading
Detection: 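Dual luciferase assay: Renilla to firefly signal ratio in each well, scaled to the mean ratio of its plate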
Units: stable assay Renilla, run 1 in luminescence; stable assay firefly, run 1 in luminescence
Call rule: 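First-pass picks had plate-scaled ratios over 1.5 for the siRNA assay, over 1.6 for the miRNA assay, or under 0.6; two distinct dsRNAs had to score alike on retest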

Silencing of Rgl [DRSC11267] resulted in: stable assay Renilla, run 1 = 6395; stable assay firefly, run 1 = 4.97e5; inactive.
With knock-down of Desi [DRSC14909], the record shows stable assay Renilla, run 1 = 7323; stable assay firefly, run 1 = 3.82e5; inactive.
For PlexA [DRSC17220], the values are stable assay Renilla, run 1 = 7911; stable assay firefly, run 1 = 4.15e5; inactive.
After knock-down of CG31948 [DRSC00740], the screen gave stable assay Renilla, run 1 = 7220; stable assay firefly, run 1 = 4.28e5; inactive.
Against CG30036 [DRSC21334] the deposit lists stable assay Renilla, run 1 = 10461; stable assay firefly, run 1 = 4.62e5; inactive.
After knock-down of Cox11 [DRSC22692], the record shows stable assay Renilla, run 1 = 4875; stable assay firefly, run 1 = 4.94e5; inactive.
Knock-down of ClpX [DRSC15592] resulted in: stable assay Renilla, run 1 = 10988; stable assay firefly, run 1 = 4.70e5; inactive.
After knock-down of CG6985 [DRSC16164], the record shows stable assay Renilla, run 1 = 6582; stable assay firefly, run 1 = 2.81e5; inactive.
Knock-down of CG6674 [DRSC10692] came out at: stable assay Renilla, run 1 = 12101; stable assay firefly, run 1 = 5.34e5; inactive.
After knock-down of ng4 [DRSC18805], the record shows stable assay Renilla, run 1 = 6216; stable assay firefly, run 1 = 3.01e5; inactive.
Silencing of CG13739 [DRSC06410] came out at: stable assay Renilla, run 1 = 4767; stable assay firefly, run 1 = 1.99e5; inactive.
Against CG13739 [DRSC23200], the values are stable assay Renilla, run 1 = 1056; stable assay firefly, run 1 = 52245; inactive.
After knock-down of Fic [DRSC03247], the screen gave stable assay Renilla, run 1 = 42973; stable assay firefly, run 1 = 4.90e5; inactive.
For Noc3 [DRSC12535] the deposit lists stable assay Renilla, run 1 = 8551; stable assay firefly, run 1 = 4.12e5; inactive.

2 consecutive records from above, for reference:
CG31948 [DRSC00740] | stable assay Renilla, run 1: 7220; stable assay firefly, run 1: 4.28e5; outcome: inactive
CG30036 [DRSC21334] | stable assay Renilla, run 1: 10461; stable assay firefly, run 1: 4.62e5; outcome: inactive

The results go on:
For pelo [DRSC03588] the deposit lists stable assay Renilla, run 1 = 18948; stable assay firefly, run 1 = 1.00e6; inactive.
Depletion of Obp50c + Obp50b [DRSC05482] resulted in: stable assay Renilla, run 1 = 6658; stable assay firefly, run 1 = 3.55e5; inactive.
CG8850 [DRSC07287] scored stable assay Renilla, run 1 = 6134; stable assay firefly, run 1 = 3.54e5; inactive.
Silencing of CG32241 [DRSC08100] resulted in: stable assay Renilla, run 1 = 4255; stable assay firefly, run 1 = 2.91e5; inactive.
After knock-down of CG32241 [DRSC21518], the record shows stable assay Renilla, run 1 = 10131; stable assay firefly, run 1 = 5.29e5; inactive.
Silencing of Trpgamma [DRSC03626] gave: stable assay Renilla, run 1 = 7595; stable assay firefly, run 1 = 4.63e5; inactive.
After knock-down of Pxt [DRSC17040] the results were stable assay Renilla, run 1 = 5311; stable assay firefly, run 1 = 4.14e5; inactive.
CG30056 [DRSC21752] showed stable assay Renilla, run 1 = 9094; stable assay firefly, run 1 = 5.89e5; inactive.
Against dom [DRSC04558] the deposit lists stable assay Renilla, run 1 = 4.30e5; stable assay firefly, run 1 = 5.14e5; inactive.
Against dom [DRSC04559], the values are miRNA reporter change reporter ratio lowered past the hit cutoff; stable assay Renilla, run 1 = 5444; stable assay firefly, run 1 = 4.30e5; active.
For jigr1 [DRSC13724], the values are stable assay Renilla, run 1 = 5536; stable assay firefly, run 1 = 4.42e5; inactive.
jigr1 [DRSC15233] showed stable assay Renilla, run 1 = 5979; stable assay firefly, run 1 = 3.61e5; inactive.
jigr1 [DRSC22617] showed stable assay Renilla, run 1 = 2931; stable assay firefly, run 1 = 3.17e5; inactive.
Knock-down of futsch [DRSC17688] resulted in: stable assay Renilla, run 1 = 7156; stable assay firefly, run 1 = 3.80e5; inactive.
futsch [DRSC17949] showed stable assay Renilla, run 1 = 4051; stable assay firefly, run 1 = 3.91e5; inactive.
For futsch [DRSC17952], the entry reads stable assay Renilla, run 1 = 8513; stable assay firefly, run 1 = 4.81e5; inactive.
Silencing of futsch [DRSC18543] resulted in: stable assay Renilla, run 1 = 6606; stable assay firefly, run 1 = 4.75e5; inactive.
After knock-down of Neurochondrin [DRSC12580] the results were stable assay Renilla, run 1 = 7731; stable assay firefly, run 1 = 4.08e5; inactive.
dsb [DRSC08407] showed stable assay Renilla, run 1 = 4428; stable assay firefly, run 1 = 2.53e5; inactive.
For dsb [DRSC08542] the deposit lists stable assay Renilla, run 1 = 5335; stable assay firefly, run 1 = 3.29e5; inactive.
After knock-down of CG42404 [DRSC15558], the screen gave stable assay Renilla, run 1 = 8165; stable assay firefly, run 1 = 4.22e5; inactive.
